According to paper doi:10.1101/073015:
Where two headings read alike, the source gives them in different places. No constants are given. Whether binding was seen depends on the method and setting. For some assays here: In cells and extracts the contact can be indirect. Some results given as binding are weak or reduced against the parent protein; the word gives no strength. Sequences can lack the tags named with a protein.

The chains behind the UniProt entries cited, without tags or fusion partners. Where a name states a change or a piece, a line headed by the entry shows the natural chain unless it says otherwise.
UniProt P49597, whole entry: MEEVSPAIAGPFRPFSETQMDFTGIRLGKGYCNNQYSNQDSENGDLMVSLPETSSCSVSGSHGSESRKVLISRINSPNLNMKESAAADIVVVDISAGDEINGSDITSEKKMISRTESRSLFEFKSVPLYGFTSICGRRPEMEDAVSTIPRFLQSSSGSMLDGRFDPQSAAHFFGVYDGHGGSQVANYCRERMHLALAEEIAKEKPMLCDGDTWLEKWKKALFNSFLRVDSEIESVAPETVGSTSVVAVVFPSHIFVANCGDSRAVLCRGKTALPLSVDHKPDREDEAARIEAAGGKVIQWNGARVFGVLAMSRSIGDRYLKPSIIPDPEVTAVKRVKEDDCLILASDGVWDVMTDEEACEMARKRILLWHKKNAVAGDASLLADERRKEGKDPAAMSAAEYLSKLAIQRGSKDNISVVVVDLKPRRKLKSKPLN
UniProt O04719, whole entry: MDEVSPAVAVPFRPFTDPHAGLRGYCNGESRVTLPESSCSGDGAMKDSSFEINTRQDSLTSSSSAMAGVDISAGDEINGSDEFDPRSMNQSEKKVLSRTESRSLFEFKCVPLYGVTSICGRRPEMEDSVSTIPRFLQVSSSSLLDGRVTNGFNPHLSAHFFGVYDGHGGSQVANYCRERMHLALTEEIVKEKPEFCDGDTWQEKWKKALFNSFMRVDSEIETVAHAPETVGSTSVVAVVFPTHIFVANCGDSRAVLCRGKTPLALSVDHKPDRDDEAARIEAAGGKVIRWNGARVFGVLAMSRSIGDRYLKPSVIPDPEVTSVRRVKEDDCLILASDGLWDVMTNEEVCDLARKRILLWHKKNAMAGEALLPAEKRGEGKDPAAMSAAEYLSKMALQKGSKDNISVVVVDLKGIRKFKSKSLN

B1: MAP kinase 12 (MPK12), Col-0 version, split-ubiquitin two-hybrid fusion (enzyme, UniProt Q8GYQ5 1-372)
chain: MSGESSSGSTEHCIKVVPTHGGRYVQYNVYGQLFEVSRKYVPPIRPIGRGACGIVCAAVNSVTGEKVAIKKIGNAFDNIIDAKRTLREIKLLRHMDHENVITIKDIVRPPQRDIFNDVYIVYELMDTDLQRILRSNQTLTSDQCRFLVYQLLRGLKYVHSANILHRDLRPSNVLLNSKNELKIGDFGLARTTSDTDFMTEYVVTRWYRAPELLLNCSEYTAAIDIWSVGCILGEIMTGQPLFPGKDYVHQLRLITELVGSPDNSSLGFLRSDNARRYVRQLPRYPKQQFAARFPKMPTTAIDLLERMLVFDPNRRISVDEALGHAYLSPHHDVAKEPVCSTPFSFDFEHPSCTEEHIKELIYKESVKFNPDH
B2: IBR5 (INDOLE-3-BUTYRIC ACID RESPONSE 5), split-ubiquitin two-hybrid prey (enzyme, UniProt Q84JU4 1-257)
chain: MRKRERENPCSICGHYHKYEEGEVCGVCGHCMPVSSDTVAPQQVHVSAFPSEILPEFLYLGSYDNASRSELLKTQGISRVLNTVPMCQNLYRNSFTYHGLDNEKVLQFDDAIKFLDQCEKDKARVLVHCMSGKSRSPAVVVAYLMKRKGWRLAESHQWVKQRRPSTDISPEFYQQLQEFEQGIFGSEMMSAMNINDAPTFGFGFPKIDNQAQAPVFNNAPTSSIFSSPASSIPPQEFTFGATPPKPTTGGDIAMDGS
B3: Cvi-0 MPK12 (G53R), split-ubiquitin two-hybrid fusion (enzyme, UniProt Q8GYQ5 1-372)
chain: MSGESSSGSTEHCIKVVPTHGGRYVQYNVYGQLFEVSRKYVPPIRPIGRGACRIVCAAVNSVTGEKVAIKKIGNAFDNIIDAKRTLREIKLLRHMDHENVITIKDIVRPPQRDIFNDVYIVYELMDTDLQRILRSNQTLTSDQCRFLVYQLLRGLKYVHSANILHRDLRPSNVLLNSKNELKIGDFGLARTTSDTDFMTEYVVTRWYRAPELLLNCSEYTAAIDIWSVGCILGEIMTGQPLFPGKDYVHQLRLITELVGSPDNSSLGFLRSDNARRYVRQLPRYPKQQFAARFPKMPTTAIDLLERMLVFDPNRRISVDEALGHAYLSPHHDVAKEPVCSTPFSFDFEHPSCTEEHIKELIYKESVKFNPDH
B4: MPK12 (Col-0 version), split-YFP fusion for BiFC (enzyme, UniProt Q8GYQ5 1-372)
chain: MSGESSSGSTEHCIKVVPTHGGRYVQYNVYGQLFEVSRKYVPPIRPIGRGACGIVCAAVNSVTGEKVAIKKIGNAFDNIIDAKRTLREIKLLRHMDHENVITIKDIVRPPQRDIFNDVYIVYELMDTDLQRILRSNQTLTSDQCRFLVYQLLRGLKYVHSANILHRDLRPSNVLLNSKNELKIGDFGLARTTSDTDFMTEYVVTRWYRAPELLLNCSEYTAAIDIWSVGCILGEIMTGQPLFPGKDYVHQLRLITELVGSPDNSSLGFLRSDNARRYVRQLPRYPKQQFAARFPKMPTTAIDLLERMLVFDPNRRISVDEALGHAYLSPHHDVAKEPVCSTPFSFDFEHPSCTEEHIKELIYKESVKFNPDH
B5: Cvi-0 MPK12 (G53R), split-YFP fusion for BiFC (enzyme, UniProt Q8GYQ5 1-372)
chain: MSGESSSGSTEHCIKVVPTHGGRYVQYNVYGQLFEVSRKYVPPIRPIGRGACRIVCAAVNSVTGEKVAIKKIGNAFDNIIDAKRTLREIKLLRHMDHENVITIKDIVRPPQRDIFNDVYIVYELMDTDLQRILRSNQTLTSDQCRFLVYQLLRGLKYVHSANILHRDLRPSNVLLNSKNELKIGDFGLARTTSDTDFMTEYVVTRWYRAPELLLNCSEYTAAIDIWSVGCILGEIMTGQPLFPGKDYVHQLRLITELVGSPDNSSLGFLRSDNARRYVRQLPRYPKQQFAARFPKMPTTAIDLLERMLVFDPNRRISVDEALGHAYLSPHHDVAKEPVCSTPFSFDFEHPSCTEEHIKELIYKESVKFNPDH
B6: MPK11, split-YFP fusion for BiFC (enzyme, UniProt Q9LMM5 1-369)
chain: MSIEKPFFGDDSNRGVSINGGRYVQYNVYGNLFEVSKKYVPPLRPIGRGASGIVCAAWNSETGEEVAIKKIGNAFGNIIDAKRTLREIKLLKHMDHDNVIAIIDIIRPPQPDNFNDVHIVYELMDTDLHHIIRSNQPLTDDHSRFFLYQLLRGLKYVHSANVLHRDLKPSNLLLNANCDLKIGDFGLARTKSETDFMTEYVVTRWYRAPELLLNCSEYTAAIDIWSVGCILGEIMTREPLFPGRDYVQQLRLITELIGSPDDSSLGFLRSDNARRYVRQLPQYPRQNFAARFPNMSVNAVDLLQKMLVFDPNRRITVDEALCHPYLAPLHEYNEEPVCVRPFHFDFEQPSLTEENIKELIYRESVKFNP
B7: BLUS1, split-ubiquitin two-hybrid prey (enzyme, UniProt O23304 1-487)
chain: MARNKLEFPLDAEAYEIICKIGVGVSASVYKAICIPMNSMVVAIKAIDLDQSRADFDSLRRETKTMSLLSHPNILNAYCSFTVDRCLWVVMPFMSCGSLHSIVSSSFPSGLPENCISVFLKETLNAISYLHDQGHLHRDIKAGNILVDSDGSVKLADFGVSASIYEPVTSSSGTTSSSLRLTDIAGTPYWMAPEVVHSHTGYGFKADIWSFGITALELAHGRPPLSHLPPLKSLLMKITKRFHFSDYEINTSGSSKKGNKKFSKAFREMVGLCLEQDPTKRPSAEKLLKHPFFKNCKGLDFVVKNVLHSLSNAEQMFMESQILIKSVGDDDEEEEEEDEEIVKNRRISGWNFREDDLQLSPVFPATESDSSESSPREEDQSKDKKEDDNVTITGYELGLGLSNEEAKNQEGEVVGFDKDLVLEKLKVLKKSLEHQRARVSIIIEALSGDKEEKSREEELLEMVEKLKIELETEKLKTLRADKDSVLG
B8: MKP2 (MAPK PHOSPHATASE 2), split-ubiquitin two-hybrid prey (enzyme, UniProt Q9M8K7 1-167)
chain: MEKVVDLFGVGEANSQKLLEGGKDLSEIQQGLFIGSVAEANNKDFLKSSNITHVLTVAVALAPPYPDDFVYKVIEVVDRSETDLTVYFDECYSFIDQAIQSGGGVLVHCFMGMSRSVTIVVAYLMKKHGMGFSKAMELVRSRRHQAYPNPGFISQLQQFEKSIQGNA
B9: SnRK2.2, split-ubiquitin two-hybrid prey (enzyme, UniProt Q39192 1-362)
chain: MDPATNSPIMPIDLPIMHDSDRYDFVKDIGSGNFGVARLMTDRVTKELVAVKYIERGEKIDENVQREIINHRSLRHPNIVRFKEVILTPSHLAIVMEYAAGGELYERICNAGRFSEDEARFFFQQLISGVSYCHAMQICHRDLKLENTLLDGSPAPRLKICDFGYSKSSVLHSQPKSTVGTPAYIAPEILLRQEYDGKLADVWSCGVTLYVMLVGAYPFEDPQEPRDYRKTIQRILSVTYSIPEDLHLSPECRHLISRIFVADPATRITIPEITSDKWFLKNLPGDLMDENRMGSQFQEPEQPMQSLDTIMQIISEATIPTVRNRCLDDFMADNLDLDDDMDDFDSESEIDVDSSGEIVYAL
B10: SnRK3.11, split-ubiquitin two-hybrid prey (enzyme, UniProt Q9LDI3 1-446)
chain: MTKKMRRVGKYEVGRTIGEGTFAKVKFARNTDTGDNVAIKIMAKSTILKNRMVDQIKREISIMKIVRHPNIVRLYEVLASPSKIYIVLEFVTGGELFDRIVHKGRLEESESRKYFQQLVDAVAHCHCKGVYHRDLKPENLLLDTNGNLKVSDFGLSALPQEGVELLRTTCGTPNYVAPEVLSGQGYDGSAADIWSCGVILFVILAGYLPFSETDLPGLYRKINAAEFSCPPWFSAEVKFLIHRILDPNPKTRIQIQGIKKDPWFRLNYVPIRAREEEEVNLDDIRAVFDGIEGSYVAENVERNDEGPLMMNAFEMITLSQGLNLSALFDRRQDFVKRQTRFVSRREPSEIIANIEAVANSMGFKSHTRNFKTRLEGLSSIKAGQLAVVIEIYEVAPSLFMVDVRKAAGETLEYHKFYKKLCSKLENIIWRATEGIPKSEILRTITF
B11: HAB2, split-ubiquitin two-hybrid prey (enzyme, UniProt Q9LNP9 20-511)
chain: DSGISSTFDISELENVTDAADMLCNQKRQRYSNGVVDCIMGSVSEEKTLSEVRSLSSDFSVTVQESEEDEPLVSDATIISEGLIVVDARSEISLPDTVETDNGRVLATAIILNETTIEQVPTAEVLIASLNHDVNMEVATSEVVIRLPEENPNVARGSRSVYELECIPLWGTISICGGRSEMEDAVRALPHFLKIPIKMLMGDHEGMSPSLPYLTSHFFGVYDGHGGAQVADYCHDRIHSALAEEIERIKEELCRRNTGEGRQVQWEKVFVDCYLKVDDEVKGKINRPVVGSSDRMVLEAVSPETVGSTAVVALVCSSHIIVSNCGDSRAVLLRGKDSMPLSVDHKPDREDEYARIEKAGGKVIQWQGARVSGVLAMSRSIGDQYLEPFVIPDPEVTFMPRAREDECLILASDGLWDVMSNQEACDFARRRILAWHKKNGALPLAERGVGEDQACQAAAEYLSKLAIQMGSKDNISIIVIDLKAQRKFKTRS

What was measured:
[1] = biological target: T1, MAP kinase 12 (MPK12), Col-0 version, split-ubiquitin two-hybrid fusion (Arabidopsis thaliana) (UniProt Q8GYQ5); assay: two-hybrid
T1 sequence: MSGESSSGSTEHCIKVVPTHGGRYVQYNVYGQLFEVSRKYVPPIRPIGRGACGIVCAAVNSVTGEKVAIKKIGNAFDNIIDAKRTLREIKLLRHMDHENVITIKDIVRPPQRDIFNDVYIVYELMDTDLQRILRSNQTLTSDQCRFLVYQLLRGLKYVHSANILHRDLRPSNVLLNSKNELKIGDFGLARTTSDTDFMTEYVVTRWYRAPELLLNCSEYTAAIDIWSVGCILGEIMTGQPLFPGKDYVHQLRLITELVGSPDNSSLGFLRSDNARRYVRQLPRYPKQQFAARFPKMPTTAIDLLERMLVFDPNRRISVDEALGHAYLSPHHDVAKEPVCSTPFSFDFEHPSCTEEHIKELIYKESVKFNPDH

[2] = biological target: T2, protein kinase HT1 (HIGH LEAF TEMPERATURE 1), split-ubiquitin two-hybrid fusion (Arabidopsis thaliana) (UniProt Q2MHE4); assay: two-hybrid
T2 sequence: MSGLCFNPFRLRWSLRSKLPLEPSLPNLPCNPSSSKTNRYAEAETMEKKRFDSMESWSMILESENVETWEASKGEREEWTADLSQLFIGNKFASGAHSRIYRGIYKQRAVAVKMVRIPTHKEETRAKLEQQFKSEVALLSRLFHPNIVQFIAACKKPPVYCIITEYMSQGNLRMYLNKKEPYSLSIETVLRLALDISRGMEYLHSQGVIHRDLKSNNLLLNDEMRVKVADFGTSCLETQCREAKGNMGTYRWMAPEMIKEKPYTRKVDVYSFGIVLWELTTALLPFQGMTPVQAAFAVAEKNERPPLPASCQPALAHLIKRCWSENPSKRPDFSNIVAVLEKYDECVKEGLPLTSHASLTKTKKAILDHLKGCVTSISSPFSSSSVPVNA

[3] = biological target: T2, protein kinase HT1 (HIGH LEAF TEMPERATURE 1), split-ubiquitin two-hybrid fusion (Arabidopsis thaliana); assay: two-hybrid; remark: listed apart in the source
[4] = biological target: T3, HT1, split-YFP fusion for BiFC (Arabidopsis thaliana) (UniProt Q2MHE4); assay: split reporter
T3 sequence: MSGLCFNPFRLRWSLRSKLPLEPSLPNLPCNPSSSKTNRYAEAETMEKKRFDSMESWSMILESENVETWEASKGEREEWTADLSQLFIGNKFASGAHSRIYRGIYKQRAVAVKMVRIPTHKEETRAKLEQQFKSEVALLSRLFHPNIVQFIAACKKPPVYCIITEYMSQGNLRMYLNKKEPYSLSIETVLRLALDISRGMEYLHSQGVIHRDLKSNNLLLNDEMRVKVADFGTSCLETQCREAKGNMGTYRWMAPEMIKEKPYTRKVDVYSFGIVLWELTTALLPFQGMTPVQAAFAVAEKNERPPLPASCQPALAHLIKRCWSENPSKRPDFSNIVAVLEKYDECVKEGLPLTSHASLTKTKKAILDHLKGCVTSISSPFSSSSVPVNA

Row | binding [1] | also measured | Molecule
1 | no binding |  | ABI1, split-ubiquitin two-hybrid prey (from UniProt P49597 1-434) (enzyme)
2 | no binding |  | ABI2, split-ubiquitin two-hybrid prey (from UniProt O04719 1-423) (enzyme)
3 |  | binding [2]: binds; binding [3]: binds | B1
4 | binds |  | B2
5 |  | binding [2]: binds | B3
6 |  | binding [4]: binds | B4
7 |  | binding [4]: binds | B5
8 |  | binding [4]: no binding | B6
9 | no binding |  | B7
10 | no binding |  | B8
11 | no binding |  | B9
12 | no binding |  | B10
13 | no binding |  | B11
